Here are results for 15 targets from the supplement of paper PMC11732987, “Enantioselective OTUD7B fragment discovery through chemoproteomics screening and high-throughput optimisation” (Communications Chemistry, 2025).

By UniProt entry, the sequences of proteins in these tests, tags left out. Where a name states a change or a piece, a line headed by the entry shows the natural chain unless it says otherwise.
UniProt Q96A37: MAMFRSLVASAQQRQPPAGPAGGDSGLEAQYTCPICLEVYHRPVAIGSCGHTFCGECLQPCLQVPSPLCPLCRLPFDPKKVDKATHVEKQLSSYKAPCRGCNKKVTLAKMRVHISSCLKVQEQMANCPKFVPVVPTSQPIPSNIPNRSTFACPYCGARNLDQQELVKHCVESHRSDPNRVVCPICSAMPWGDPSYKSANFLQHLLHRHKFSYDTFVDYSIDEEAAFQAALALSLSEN
UniProt O75150: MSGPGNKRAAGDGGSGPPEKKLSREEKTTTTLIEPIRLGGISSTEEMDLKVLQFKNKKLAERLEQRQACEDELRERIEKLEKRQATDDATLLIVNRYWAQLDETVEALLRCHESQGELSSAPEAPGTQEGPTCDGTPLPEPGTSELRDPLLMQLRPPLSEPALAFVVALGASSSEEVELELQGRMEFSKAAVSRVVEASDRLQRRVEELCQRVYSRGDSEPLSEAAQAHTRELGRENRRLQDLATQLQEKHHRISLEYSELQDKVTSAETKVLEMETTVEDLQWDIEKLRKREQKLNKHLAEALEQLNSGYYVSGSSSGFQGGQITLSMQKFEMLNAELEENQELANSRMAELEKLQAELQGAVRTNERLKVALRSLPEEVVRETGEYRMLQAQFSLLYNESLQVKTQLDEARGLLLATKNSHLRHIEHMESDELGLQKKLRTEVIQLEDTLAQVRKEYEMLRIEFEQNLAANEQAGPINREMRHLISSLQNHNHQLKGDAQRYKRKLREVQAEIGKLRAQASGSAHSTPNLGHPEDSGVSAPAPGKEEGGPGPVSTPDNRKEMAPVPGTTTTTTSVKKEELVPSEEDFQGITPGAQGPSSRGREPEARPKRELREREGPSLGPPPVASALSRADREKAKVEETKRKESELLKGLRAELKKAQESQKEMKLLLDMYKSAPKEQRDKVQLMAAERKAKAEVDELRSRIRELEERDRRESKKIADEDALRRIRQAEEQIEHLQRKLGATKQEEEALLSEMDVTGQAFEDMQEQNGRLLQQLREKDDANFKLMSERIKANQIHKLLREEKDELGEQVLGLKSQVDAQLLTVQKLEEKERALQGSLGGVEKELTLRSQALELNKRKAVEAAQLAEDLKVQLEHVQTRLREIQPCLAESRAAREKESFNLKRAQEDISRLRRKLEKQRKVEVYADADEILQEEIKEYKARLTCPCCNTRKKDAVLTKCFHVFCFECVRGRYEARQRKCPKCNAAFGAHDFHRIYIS
UniProt P23921: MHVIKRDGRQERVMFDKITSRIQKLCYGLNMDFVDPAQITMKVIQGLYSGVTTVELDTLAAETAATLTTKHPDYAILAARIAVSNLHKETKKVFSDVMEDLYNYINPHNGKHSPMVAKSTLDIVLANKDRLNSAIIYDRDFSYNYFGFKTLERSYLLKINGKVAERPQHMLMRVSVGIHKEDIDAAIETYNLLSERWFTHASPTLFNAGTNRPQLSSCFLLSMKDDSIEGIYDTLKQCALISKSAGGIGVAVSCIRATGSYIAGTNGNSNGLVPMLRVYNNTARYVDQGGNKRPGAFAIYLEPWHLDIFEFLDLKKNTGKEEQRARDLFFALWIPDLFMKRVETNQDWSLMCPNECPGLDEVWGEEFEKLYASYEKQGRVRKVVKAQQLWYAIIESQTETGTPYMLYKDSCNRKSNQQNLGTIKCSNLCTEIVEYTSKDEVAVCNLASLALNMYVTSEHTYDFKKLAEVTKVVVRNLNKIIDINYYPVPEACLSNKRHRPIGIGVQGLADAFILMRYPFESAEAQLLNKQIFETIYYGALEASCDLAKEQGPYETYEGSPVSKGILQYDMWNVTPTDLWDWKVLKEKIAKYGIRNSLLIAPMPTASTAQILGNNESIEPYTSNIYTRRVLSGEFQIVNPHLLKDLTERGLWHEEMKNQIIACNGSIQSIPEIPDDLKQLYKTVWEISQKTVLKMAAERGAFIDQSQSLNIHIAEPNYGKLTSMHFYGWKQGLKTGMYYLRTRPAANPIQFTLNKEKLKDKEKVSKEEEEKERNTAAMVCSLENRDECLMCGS
UniProt Q9Y3V2: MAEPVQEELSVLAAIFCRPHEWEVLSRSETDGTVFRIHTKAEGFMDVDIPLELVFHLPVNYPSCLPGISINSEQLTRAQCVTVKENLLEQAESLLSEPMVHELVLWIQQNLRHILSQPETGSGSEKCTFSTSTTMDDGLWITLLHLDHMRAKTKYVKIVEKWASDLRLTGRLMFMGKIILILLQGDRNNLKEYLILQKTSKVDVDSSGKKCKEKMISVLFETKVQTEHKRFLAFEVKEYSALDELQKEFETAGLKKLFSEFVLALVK
UniProt Q5XPI4: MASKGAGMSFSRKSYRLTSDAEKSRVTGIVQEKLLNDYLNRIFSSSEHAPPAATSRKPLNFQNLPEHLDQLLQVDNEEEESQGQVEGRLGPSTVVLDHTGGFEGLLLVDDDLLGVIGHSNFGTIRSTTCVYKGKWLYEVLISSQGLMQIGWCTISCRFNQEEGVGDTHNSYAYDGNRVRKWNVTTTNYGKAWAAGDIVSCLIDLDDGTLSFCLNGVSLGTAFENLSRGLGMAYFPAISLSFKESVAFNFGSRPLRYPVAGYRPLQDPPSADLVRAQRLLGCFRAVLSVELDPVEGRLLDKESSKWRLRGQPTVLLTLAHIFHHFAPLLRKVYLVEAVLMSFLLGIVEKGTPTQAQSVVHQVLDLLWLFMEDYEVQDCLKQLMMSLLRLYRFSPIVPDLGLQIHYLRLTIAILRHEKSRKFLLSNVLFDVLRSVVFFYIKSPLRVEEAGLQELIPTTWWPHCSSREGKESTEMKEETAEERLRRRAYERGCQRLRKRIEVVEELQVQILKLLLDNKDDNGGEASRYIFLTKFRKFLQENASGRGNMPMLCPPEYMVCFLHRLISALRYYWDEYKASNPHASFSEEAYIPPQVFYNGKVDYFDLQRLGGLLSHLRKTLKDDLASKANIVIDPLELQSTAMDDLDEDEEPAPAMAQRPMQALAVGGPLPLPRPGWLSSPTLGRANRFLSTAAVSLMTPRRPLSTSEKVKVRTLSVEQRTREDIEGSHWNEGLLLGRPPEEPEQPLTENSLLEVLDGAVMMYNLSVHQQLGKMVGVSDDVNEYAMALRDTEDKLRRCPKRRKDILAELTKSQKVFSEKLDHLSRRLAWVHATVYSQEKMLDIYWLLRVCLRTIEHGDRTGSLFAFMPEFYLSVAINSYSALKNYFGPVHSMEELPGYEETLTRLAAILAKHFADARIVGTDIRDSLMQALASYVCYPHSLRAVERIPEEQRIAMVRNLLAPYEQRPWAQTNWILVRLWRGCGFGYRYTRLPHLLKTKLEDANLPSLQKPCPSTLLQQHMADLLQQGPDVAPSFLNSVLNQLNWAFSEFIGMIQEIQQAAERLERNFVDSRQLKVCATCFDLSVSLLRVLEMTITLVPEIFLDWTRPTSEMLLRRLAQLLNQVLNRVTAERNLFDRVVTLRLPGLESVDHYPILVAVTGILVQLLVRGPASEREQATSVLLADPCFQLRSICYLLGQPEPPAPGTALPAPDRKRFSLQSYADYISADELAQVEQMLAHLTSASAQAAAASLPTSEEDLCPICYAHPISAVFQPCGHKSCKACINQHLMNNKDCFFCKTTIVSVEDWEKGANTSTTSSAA
UniProt Q8N122: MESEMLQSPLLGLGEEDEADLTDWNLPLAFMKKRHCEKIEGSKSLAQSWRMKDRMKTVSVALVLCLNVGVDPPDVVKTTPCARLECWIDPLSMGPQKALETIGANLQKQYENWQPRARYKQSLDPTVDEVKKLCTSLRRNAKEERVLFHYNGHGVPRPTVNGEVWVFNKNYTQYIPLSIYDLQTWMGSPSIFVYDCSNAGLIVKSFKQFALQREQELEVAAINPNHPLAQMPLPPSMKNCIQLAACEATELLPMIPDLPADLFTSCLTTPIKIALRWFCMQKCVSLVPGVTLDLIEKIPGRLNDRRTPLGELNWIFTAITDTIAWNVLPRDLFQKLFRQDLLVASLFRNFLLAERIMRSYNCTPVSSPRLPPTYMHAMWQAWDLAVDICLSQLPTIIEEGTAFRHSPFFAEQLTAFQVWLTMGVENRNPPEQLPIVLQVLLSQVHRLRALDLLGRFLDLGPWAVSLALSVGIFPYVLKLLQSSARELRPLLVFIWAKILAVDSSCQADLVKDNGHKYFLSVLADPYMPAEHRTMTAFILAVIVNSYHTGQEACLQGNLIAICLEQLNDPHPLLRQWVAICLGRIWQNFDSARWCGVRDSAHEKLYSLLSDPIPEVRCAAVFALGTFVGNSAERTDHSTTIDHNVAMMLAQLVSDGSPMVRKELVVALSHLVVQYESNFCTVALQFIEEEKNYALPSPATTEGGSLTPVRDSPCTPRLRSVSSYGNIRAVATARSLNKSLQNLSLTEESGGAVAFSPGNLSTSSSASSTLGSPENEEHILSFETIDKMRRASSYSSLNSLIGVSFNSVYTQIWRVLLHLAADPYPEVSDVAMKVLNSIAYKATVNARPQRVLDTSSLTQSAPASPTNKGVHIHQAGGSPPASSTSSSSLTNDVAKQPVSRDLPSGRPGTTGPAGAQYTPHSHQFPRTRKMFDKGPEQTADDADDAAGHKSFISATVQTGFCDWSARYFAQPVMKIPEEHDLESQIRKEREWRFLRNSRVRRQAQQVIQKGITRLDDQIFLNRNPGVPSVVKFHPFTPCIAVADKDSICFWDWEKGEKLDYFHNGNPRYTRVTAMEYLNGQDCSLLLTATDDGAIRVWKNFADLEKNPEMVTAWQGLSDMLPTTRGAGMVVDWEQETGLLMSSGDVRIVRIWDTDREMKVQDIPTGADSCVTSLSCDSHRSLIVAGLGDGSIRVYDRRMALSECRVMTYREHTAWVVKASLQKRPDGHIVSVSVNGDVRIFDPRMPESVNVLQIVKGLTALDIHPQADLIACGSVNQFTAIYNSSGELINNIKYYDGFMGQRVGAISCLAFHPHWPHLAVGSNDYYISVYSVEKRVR
UniProt Q9H6T3, whole entry, looked up: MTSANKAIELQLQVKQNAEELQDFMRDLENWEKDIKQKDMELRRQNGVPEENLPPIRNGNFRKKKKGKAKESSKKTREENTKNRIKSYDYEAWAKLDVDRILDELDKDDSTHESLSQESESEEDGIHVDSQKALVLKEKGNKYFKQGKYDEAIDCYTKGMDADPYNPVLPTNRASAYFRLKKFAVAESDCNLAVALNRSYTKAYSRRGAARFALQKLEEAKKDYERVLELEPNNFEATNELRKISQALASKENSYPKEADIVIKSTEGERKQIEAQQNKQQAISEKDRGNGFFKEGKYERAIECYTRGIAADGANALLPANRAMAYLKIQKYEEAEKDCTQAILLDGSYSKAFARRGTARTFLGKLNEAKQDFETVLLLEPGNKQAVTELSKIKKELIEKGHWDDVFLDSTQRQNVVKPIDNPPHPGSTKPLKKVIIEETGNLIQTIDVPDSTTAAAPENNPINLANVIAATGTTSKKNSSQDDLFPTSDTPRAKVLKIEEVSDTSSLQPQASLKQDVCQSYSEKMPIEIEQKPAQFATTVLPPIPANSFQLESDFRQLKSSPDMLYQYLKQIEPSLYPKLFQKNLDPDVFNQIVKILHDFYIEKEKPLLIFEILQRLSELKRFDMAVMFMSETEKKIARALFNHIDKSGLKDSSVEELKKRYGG
UniProt Q86UN3: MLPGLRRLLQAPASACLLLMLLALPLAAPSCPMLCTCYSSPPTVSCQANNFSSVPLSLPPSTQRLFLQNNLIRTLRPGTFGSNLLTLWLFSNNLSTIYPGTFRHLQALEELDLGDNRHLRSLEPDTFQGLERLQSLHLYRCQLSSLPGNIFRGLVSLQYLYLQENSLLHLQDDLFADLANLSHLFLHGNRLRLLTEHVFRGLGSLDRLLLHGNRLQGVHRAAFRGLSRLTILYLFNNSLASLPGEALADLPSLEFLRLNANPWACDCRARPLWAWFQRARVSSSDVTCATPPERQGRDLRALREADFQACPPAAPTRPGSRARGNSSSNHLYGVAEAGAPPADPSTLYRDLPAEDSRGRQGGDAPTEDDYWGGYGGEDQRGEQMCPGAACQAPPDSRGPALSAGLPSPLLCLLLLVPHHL

This is one part of the list. The data scatter; read single values as rough.

Compound in this test: ClCC(=O)N[C@@H]1CCCc2ccccc12
In words: log2 mean competition ratio of IA-DTB cysteine labelling (DMSO/compound) (log2 ratio); higher = stronger cysteine engagement by compound. The settings on record: 200 µM; treatment time: 4 h; cell line lysate: HEK293T. How it is done:
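IA-DTB competitive cysteine chemoproteomics in HEK293T RIPA lysate. Lysates were treated with compound 29 or 30 at 50 or 200 µM for 4 h, then IA-DTB (500 µM, 1 h), trypsin-digested, NeutrAvidin-enriched and analysed by diaPASEF. Competition ratio = intensity DMSO / intensity compound (n=4 treated, n=64 DMSO); binding: mean log2 CR ≥ 1 and p ≤ 0.05 plus QC filters. Target is the cysteine site.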
Turning to RNF166 C127 (UniProt Q96A37), the “log2 mean competition ratio” value is -0.0327. To RNF40 C890 (UniProt O75150) belongs 0.234; to RRM1 C238 (UniProt P23921), -0.91; to RWDD3 C80 (UniProt Q9Y3V2), -0.196. Next, RPS11 C60 (UniProt P62280): 0.355; RNF123 C977 (UniProt Q5XPI4): -0.0524.

RPTOR C505 (UniProt Q8N122): the “log2 mean competition ratio” value was -0.107. Next, RPL12 C162 (UniProt P30050): 0.126; RPAP3 C304 (UniProt Q9H6T3): 0.104. Next, RNF213 C3084: 0.0473; RPAP3 C519 (UniProt Q9H6T3): -0.00452; RNF213 C2943: -0.197. To RPL36A;RPL36AL C88;(C88) belongs 0.00222. Consider RPL14 C42 (UniProt P50914), for which the “log2 mean competition ratio” value was -0.222.

Take RTN4RL2 C310 (UniProt Q86UN3): the “log2 mean competition ratio” value came out at 0.0771.
